Experimental data reported in the supplement of paper PMC10849652.
The other results are listed elsewhere or left out.

By UniProt entry, the sequences of proteins in these tests, tags left out. Where a name states a change or a piece, a line headed by the entry shows the natural chain unless it says otherwise.
UniProt Q9Y5K5, whole entry, looked up: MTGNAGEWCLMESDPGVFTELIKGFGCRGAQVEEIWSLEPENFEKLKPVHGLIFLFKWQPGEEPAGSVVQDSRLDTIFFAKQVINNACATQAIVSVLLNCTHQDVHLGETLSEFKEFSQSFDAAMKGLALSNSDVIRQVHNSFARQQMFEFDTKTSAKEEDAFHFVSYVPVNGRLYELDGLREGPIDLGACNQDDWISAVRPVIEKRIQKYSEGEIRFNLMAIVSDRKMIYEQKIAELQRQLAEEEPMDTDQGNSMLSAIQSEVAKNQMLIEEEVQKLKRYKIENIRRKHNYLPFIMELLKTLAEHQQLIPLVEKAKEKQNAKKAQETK
UniProt Q14139: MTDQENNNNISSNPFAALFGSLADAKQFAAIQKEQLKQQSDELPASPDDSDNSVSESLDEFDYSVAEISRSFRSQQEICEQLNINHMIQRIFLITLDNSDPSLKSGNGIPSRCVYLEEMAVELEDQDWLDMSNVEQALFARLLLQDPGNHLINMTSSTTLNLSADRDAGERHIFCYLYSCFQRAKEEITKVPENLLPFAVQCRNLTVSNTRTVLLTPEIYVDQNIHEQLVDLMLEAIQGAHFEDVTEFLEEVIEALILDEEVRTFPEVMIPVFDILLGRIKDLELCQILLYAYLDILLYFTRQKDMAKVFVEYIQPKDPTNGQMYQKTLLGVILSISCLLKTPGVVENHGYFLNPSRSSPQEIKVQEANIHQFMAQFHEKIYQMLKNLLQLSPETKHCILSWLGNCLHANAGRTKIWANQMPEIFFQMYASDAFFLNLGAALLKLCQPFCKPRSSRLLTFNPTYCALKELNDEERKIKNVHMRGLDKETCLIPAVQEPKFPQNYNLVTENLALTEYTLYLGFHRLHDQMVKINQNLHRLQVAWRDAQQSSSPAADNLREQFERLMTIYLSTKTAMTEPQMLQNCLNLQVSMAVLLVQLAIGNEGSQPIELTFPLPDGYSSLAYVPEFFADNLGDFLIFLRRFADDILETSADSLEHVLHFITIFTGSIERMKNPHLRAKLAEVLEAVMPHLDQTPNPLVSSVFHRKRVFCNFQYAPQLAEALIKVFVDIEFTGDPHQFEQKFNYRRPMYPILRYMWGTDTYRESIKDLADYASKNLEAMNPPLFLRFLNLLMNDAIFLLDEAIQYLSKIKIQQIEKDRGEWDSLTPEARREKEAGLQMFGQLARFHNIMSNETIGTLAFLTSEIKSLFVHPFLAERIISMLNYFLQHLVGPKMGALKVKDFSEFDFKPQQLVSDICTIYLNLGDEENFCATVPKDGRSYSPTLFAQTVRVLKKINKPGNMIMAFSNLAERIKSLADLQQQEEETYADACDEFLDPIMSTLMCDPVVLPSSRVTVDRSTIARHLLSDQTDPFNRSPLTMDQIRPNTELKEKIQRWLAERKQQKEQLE
UniProt Q9BV40: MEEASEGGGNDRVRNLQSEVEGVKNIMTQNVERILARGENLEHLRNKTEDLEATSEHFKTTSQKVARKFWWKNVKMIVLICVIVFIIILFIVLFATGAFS
UniProt P51809, whole entry, looked up: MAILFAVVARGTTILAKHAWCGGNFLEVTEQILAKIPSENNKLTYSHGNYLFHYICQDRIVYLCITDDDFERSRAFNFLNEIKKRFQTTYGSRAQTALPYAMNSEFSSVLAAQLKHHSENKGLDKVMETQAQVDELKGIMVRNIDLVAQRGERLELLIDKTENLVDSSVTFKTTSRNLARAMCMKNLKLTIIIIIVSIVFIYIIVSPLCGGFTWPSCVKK
UniProt O14949: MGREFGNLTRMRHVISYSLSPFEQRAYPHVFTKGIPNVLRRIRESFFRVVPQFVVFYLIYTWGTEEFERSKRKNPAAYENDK
UniProt Q96K76: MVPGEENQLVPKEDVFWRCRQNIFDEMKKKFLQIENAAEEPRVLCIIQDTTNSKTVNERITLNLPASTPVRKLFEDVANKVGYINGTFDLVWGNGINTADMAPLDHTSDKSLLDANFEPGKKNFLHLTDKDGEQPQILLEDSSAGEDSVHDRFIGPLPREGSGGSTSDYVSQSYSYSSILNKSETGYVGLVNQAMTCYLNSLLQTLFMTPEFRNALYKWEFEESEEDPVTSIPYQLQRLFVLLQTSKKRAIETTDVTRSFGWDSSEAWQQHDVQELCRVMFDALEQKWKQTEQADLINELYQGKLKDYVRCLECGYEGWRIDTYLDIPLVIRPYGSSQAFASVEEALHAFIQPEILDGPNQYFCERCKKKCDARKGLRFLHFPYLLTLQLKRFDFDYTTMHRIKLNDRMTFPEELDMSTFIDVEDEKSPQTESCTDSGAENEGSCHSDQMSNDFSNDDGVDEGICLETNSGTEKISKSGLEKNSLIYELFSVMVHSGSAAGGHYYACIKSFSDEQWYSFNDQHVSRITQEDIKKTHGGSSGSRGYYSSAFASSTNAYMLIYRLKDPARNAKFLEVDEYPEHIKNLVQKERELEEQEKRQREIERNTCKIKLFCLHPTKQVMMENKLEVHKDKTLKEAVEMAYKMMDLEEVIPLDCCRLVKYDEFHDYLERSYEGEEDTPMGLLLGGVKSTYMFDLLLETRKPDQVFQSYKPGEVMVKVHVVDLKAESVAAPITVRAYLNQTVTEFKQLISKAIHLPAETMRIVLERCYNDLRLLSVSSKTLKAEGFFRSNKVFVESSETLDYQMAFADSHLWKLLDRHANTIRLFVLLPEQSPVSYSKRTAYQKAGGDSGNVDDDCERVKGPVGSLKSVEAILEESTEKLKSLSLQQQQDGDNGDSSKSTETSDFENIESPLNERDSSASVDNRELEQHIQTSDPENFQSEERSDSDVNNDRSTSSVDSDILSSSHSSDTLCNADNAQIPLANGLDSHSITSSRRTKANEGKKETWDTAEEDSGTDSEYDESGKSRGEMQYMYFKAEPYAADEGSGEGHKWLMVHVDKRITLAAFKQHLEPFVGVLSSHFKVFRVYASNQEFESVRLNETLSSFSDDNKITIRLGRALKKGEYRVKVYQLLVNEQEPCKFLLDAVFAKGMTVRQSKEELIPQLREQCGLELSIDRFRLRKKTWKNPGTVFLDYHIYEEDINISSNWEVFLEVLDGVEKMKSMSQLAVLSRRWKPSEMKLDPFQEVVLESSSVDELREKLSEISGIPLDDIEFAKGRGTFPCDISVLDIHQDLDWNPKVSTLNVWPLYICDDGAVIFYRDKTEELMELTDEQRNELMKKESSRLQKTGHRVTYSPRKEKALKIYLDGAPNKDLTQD
UniProt P14927: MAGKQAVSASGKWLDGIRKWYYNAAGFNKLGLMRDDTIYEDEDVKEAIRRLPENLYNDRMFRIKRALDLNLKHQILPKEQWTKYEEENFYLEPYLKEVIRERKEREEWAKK
UniProt Q9Y5Z9: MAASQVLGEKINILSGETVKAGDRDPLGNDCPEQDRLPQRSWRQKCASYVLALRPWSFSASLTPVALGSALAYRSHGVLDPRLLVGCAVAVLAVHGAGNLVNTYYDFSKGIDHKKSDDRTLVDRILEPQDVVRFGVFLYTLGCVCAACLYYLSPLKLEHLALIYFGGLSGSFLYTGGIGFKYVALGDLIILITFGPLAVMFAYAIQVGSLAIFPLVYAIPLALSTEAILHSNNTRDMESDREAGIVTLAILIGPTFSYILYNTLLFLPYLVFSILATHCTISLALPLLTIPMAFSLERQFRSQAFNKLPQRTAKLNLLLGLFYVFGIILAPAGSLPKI
UniProt P07919: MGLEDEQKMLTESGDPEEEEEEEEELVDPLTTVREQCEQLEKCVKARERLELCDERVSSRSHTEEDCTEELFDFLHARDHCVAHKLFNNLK
UniProt Q8N806: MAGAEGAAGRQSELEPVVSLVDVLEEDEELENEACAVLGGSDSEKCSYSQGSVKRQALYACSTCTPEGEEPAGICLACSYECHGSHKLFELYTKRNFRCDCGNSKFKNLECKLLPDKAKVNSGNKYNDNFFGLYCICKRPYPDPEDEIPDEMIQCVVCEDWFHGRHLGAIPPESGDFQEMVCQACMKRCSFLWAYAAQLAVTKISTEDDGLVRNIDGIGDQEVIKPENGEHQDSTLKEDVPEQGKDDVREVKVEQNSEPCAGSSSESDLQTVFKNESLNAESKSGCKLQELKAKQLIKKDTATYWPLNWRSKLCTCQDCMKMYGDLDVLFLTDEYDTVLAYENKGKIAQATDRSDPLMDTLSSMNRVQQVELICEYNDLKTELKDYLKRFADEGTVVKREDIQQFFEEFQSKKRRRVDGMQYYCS
UniProt Q8IWV8: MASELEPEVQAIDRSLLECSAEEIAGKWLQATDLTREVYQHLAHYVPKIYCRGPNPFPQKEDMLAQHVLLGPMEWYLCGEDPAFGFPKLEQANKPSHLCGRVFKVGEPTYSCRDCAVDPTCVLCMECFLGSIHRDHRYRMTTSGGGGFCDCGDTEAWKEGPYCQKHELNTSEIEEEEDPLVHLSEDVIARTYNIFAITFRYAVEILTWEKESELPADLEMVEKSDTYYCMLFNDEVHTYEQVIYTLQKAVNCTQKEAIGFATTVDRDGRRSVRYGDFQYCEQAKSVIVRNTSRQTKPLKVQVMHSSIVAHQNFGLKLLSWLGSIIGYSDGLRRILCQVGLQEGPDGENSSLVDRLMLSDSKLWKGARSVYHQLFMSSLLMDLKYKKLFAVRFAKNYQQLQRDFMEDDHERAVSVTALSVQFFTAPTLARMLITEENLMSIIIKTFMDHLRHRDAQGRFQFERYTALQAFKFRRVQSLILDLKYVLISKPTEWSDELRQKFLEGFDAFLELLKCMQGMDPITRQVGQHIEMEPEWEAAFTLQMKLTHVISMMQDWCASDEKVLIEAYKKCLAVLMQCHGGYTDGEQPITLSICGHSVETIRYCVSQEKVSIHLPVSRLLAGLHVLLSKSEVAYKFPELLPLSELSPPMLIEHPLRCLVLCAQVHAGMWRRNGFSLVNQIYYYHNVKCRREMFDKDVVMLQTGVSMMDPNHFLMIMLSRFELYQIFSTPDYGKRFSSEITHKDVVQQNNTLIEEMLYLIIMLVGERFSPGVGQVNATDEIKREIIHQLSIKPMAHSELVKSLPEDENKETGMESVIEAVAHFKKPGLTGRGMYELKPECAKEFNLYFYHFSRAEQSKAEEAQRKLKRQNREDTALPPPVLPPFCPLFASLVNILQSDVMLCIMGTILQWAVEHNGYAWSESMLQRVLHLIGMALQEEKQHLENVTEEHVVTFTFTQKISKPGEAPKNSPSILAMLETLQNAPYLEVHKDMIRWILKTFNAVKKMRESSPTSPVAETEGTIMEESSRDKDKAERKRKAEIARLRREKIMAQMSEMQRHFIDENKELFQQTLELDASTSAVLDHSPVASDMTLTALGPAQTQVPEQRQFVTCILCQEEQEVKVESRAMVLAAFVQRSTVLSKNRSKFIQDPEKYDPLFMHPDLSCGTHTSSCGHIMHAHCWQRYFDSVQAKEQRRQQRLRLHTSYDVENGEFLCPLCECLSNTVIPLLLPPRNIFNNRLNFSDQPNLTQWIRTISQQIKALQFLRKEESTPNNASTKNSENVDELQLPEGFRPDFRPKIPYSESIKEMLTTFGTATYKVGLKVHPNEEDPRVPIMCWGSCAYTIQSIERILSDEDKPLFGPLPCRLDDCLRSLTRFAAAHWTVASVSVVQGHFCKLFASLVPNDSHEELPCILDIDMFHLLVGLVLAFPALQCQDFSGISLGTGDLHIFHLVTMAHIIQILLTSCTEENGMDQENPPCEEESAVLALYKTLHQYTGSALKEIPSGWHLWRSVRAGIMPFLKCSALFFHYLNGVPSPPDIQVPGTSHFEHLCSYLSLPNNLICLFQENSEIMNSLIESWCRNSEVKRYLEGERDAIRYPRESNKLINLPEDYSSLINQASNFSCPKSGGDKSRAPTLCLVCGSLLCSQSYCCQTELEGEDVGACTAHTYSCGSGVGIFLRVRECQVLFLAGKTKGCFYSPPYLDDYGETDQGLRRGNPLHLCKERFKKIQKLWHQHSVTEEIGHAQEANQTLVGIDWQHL

Tests used:
Test in all cases: log2 fold change, soluble protein after heating vs DMSO (PISA); higher = thermal stabilisation; K562 cells, 10 uM, 30 min; active = over 0.2 and 3.5 SD of the protein, either way, in both replicates (recomputed)
bafetinib = compound: Cc1ccc(NC(=O)c2ccc(CN3CC[C@H](N(C)C)C3)c(C(F)(F)F)c2)cc1Nc1nccc(-c2cncnc2)n1 [bafetinib]
Outline: (§1)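 For each measurement, 10 μM compound was applied for 30 min to K562 cells at 2×10^6 cells/mL. Aliquots were heated for 3 min across 48°C-58°C, pooled, and extracted in PBS with 0.5% NP-40 at 4°C; the supernatant after 21,000xg for 90 min was soluble protein. This was quantified by TMTpro 16plex LC-MS/MS with channel sums equalised, and thermal stability was reported relative to control samples from duplicates, on a log2 fold-change scale.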

[1] = compound: Cc1cccc(CC(=O)N2CCc3c2ccc(-c2cn(C)c4ncnc(N)c24)c3F)n1
Outline: as §1

nilotinib = compound: Cc1cn(-c2cc(NC(=O)c3ccc(C)c(Nc4nccc(-c5cccnc5)n4)c3)cc(C(F)(F)F)c2)cn1 [nilotinib]
Outline: as §1

[2] = compound: Cc1nc(Nc2n[nH]c3c2CN(C(=O)N[C@H](CN(C)C)c2ccccc2)C3(C)C)c2sccc2n1
Outline: as §1

dasatinib = compound: Cc1nc(Nc2ncc(C(=O)Nc3c(C)cccc3Cl)s2)cc(N2CCN(CCO)CC2)n1 [dasatinib]
Outline: as §1

[3] = compound: Cc1ncc(-c2ccnc(Nc3ccc(S(C)(=O)=O)cc3)n2)n1C(C)C
Outline: as §1

[4] = compound: Cn1cc(-c2ccc3c(c2)CCN3C(=O)Cc2cccc(C(F)(F)F)c2)c2c(N)ncnc21
Outline: as §1

[5] = compound: Cn1cc(-c2ccc3nnc(C(F)(F)c4ccc5ncccc5c4)n3n2)cn1
Outline: as §1

tipifarnib = compound: Cn1cncc1[C@@](N)(c1ccc(Cl)cc1)c1ccc2c(c1)c(-c1cccc(Cl)c1)cc(=O)n2C [tipifarnib]
Outline: as §1

mubritinib = compound: FC(F)(F)c1ccc(/C=C/c2nc(COc3ccc(CCCCn4ccnn4)cc3)co2)cc1 [mubritinib]
Outline: as §1

Measured: log2 fold change

UCHL5 (UniProt Q9Y5K5)
inactive: bafetinib 0.014 | [1] 0.045 | nilotinib -0.06 | [2] -0.071 | dasatinib -0.152 | [3] 0.007 | [4] 0.012 | [5] 0 | tipifarnib -0.093 | mubritinib -0.001

UBE4A isoform 2 (UniProt Q14139)
inactive: bafetinib 0.01 | [1] 0.065 | nilotinib -0.111 | [2] -0.162 | dasatinib -0.196 | [3] 0.015 | [4] -0.183 | [5] -0.023 | tipifarnib -0.092 | mubritinib 0.021

VAMP8 (UniProt Q9BV40)
inactive: bafetinib -0.108 | [1] -0.04 | nilotinib 0.022 | [2] -0.029 | dasatinib 0.073 | [3] 0.011 | [4] 0.012 | [5] 0.085 | tipifarnib 0.066 | mubritinib 0.018

VAMP7 (UniProt P51809)
inactive: bafetinib -0.066 | [1] 0.025 | nilotinib -0.034 | [2] -0.04 | dasatinib 0.002 | [3] 0.023 | [4] 0.017 | [5] 0.086 | tipifarnib -0.04 | mubritinib 0.003

VASN (UniProt Q6EMK4)
inactive: bafetinib -0.081

UQCRQ (UniProt O14949)
inactive: bafetinib -0.085 | [1] -0.021 | nilotinib 0.021 | [2] 0.004 | dasatinib 0.025 | [3] -0.008 | [4] 0.018 | [5] 0.018 | tipifarnib -0.051 | mubritinib 0.04

USP47 (UniProt Q96K76)
inactive: bafetinib 0.06 | [1] -0.001 | nilotinib -0.065 | [2] -0.12 | dasatinib -0.011 | [3] 0.014 | [4] -0.094 | [5] -0.067 | tipifarnib -0.027 | mubritinib -0.079

UQCRB (UniProt P14927)
inactive: bafetinib -0.061 | [1] 0.012 | nilotinib 0.019 | [2] 0.032 | dasatinib 0.026 | [3] -0.036 | [4] 0.037 | [5] 0.026 | tipifarnib 0 | mubritinib 0.033

USP19 isoform 6 (UniProt O94966)
inactive: bafetinib 0.016 | [1] -0.004 | nilotinib -0.017 | [2] -0.003 | dasatinib -0.076 | [3] 0.008 | [4] -0.029 | [5] -0.006 | tipifarnib -0.038 | mubritinib 0.02

UBIAD1 (UniProt Q9Y5Z9)
inactive: bafetinib -0.004 | [1] -0.022 | nilotinib 0.074 | [2] 0.004 | dasatinib 0.176 | [3] -0.004 | [4] 0.052 | [5] 0.006 | tipifarnib 0.003 | mubritinib -0.144

UQCRH (UniProt P07919)
inactive: bafetinib -0.056 | [1] 0.014 | nilotinib -0.038 | [2] 0.055 | dasatinib 0.02 | [3] -0.07 | [4] 0.035 | [5] 0.041 | tipifarnib -0.031 | mubritinib -0.01

UBR7 (UniProt Q8N806)
inactive: bafetinib -0.086 | [1] -0.017 | nilotinib -0.005 | [2] -0.044 | dasatinib -0.057 | [3] -0.009 | [4] 0.021 | [5] 0.101 | tipifarnib -0.013 | mubritinib -0.005

UTP15 (UniProt Q8TED0)
inactive: bafetinib 0.205 | [1] 0.011 | nilotinib -0.067 | [2] 0.164 | dasatinib 0.097 | [3] 0.091 | [4] -0.255 | [5] -0.205 | tipifarnib 0.233 | mubritinib -0.173

Four successive records out of the list so far, quoted:
VAMP7 (UniProt P51809)
inactive: bafetinib -0.066 | [1] 0.025 | nilotinib -0.034 | [2] -0.04 | dasatinib 0.002 | [3] 0.023 | [4] 0.017 | [5] 0.086 | tipifarnib -0.04 | mubritinib 0.003

VASN (UniProt Q6EMK4)
inactive: bafetinib -0.081

UQCRQ (UniProt O14949)
inactive: bafetinib -0.085 | [1] -0.021 | nilotinib 0.021 | [2] 0.004 | dasatinib 0.025 | [3] -0.008 | [4] 0.018 | [5] 0.018 | tipifarnib -0.051 | mubritinib 0.04

USP47 (UniProt Q96K76)
inactive: bafetinib 0.06 | [1] -0.001 | nilotinib -0.065 | [2] -0.12 | dasatinib -0.011 | [3] 0.014 | [4] -0.094 | [5] -0.067 | tipifarnib -0.027 | mubritinib -0.079

The results go on:

UBE4B isoform 4 (UniProt O95155)
inactive: bafetinib -0.003 | [1] 0.053 | nilotinib -0.051 | [2] -0.011 | dasatinib -0.069 | [3] -0.024 | [4] -0.019 | [5] -0.011 | tipifarnib -0.024 | mubritinib 0.032

UBR2 (UniProt Q8IWV8)
inactive: bafetinib 0.021 | [1] 0.072 | nilotinib 0.02 | [2] 0.01 | dasatinib -0.107 | [3] -0.069 | [4] -0.023 | [5] 0.058 | tipifarnib -0.095 | mubritinib 0.011

VAMP4 (UniProt O75379)
inactive: bafetinib -0.086 | [1] -0.025 | nilotinib 0.011 | [2] -0.008 | dasatinib 0.05 | [3] -0.049 | [4] 0.013 | [5] 0.062 | tipifarnib 0.06 | mubritinib 0.063
